From publication PMC4846877
Results are given in words; binding and its absence hold for the method and conditions named. Binding seen in cells or lysates may run through a third protein. Some entries that bind do so weakly or less than the wild type.

Biological target: T1, TNF receptor I (TNFR1) (mouse (endogenous in L929)) (UniProt P25118)
T1 sequence: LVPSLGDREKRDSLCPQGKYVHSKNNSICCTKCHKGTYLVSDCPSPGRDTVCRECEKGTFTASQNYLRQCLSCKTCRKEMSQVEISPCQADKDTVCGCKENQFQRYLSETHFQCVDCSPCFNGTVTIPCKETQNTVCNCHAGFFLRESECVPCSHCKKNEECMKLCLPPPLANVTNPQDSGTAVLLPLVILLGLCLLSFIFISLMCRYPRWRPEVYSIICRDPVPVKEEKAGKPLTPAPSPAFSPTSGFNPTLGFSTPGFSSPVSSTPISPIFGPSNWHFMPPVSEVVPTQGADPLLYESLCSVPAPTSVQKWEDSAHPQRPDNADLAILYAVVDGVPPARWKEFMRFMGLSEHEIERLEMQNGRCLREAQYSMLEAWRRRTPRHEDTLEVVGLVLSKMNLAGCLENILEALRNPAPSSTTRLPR
Assay: co-IP; L929 cells treated with TNF (15 ng/mL) for 5 or 15 min without or with WETC (0.4 mg/mL); extracts in M2 buffer (20 mM Tris pH 7.6, 0.5% NP-40, 250 mM NaCl) precipitated with anti-TNFR1 or anti-IKK-γ antibodies and protein G-A agarose overnight at 4 °C; immunoblot

B1: TRADD (protein, UniProt Q3U0V2 1-310)
chain: MAAGQNGHEEWVGSAYLFLESAVDKVILSEAYTDPKKKVAIYKALQTALSESGDSSDVLQILKIHCSDPQLIVQLRFCGRVLCGRFLQAYREGALRTALQRCMAPALAQEALRLQLELRAGAEQLDSWLTDEERCLNYILAQKPDRLRDEELAELEDELCKLTCDCTGQGGAIQVASAGSKFPVSSPTEEKPLPAACQTFLFHGQLVVNRPLTLQDQQTFARSVGLKWRRVGRSLQRNCRALRDPALDSLAYEYERDGLYEQAFQLLRRFMQAEGRRATLQRLVEALEENELTSLAEDLLGQAEPDGGLA
For B1, the binding was “binds”.
